No constants are given. Whether binding was seen depends on the method and setting. Binding seen in cells or lysates may run through a third protein. Some entries that bind do so weakly or less than the wild type.

By UniProt entry, the sequences of proteins in these tests, tags left out.
UniProt P26040: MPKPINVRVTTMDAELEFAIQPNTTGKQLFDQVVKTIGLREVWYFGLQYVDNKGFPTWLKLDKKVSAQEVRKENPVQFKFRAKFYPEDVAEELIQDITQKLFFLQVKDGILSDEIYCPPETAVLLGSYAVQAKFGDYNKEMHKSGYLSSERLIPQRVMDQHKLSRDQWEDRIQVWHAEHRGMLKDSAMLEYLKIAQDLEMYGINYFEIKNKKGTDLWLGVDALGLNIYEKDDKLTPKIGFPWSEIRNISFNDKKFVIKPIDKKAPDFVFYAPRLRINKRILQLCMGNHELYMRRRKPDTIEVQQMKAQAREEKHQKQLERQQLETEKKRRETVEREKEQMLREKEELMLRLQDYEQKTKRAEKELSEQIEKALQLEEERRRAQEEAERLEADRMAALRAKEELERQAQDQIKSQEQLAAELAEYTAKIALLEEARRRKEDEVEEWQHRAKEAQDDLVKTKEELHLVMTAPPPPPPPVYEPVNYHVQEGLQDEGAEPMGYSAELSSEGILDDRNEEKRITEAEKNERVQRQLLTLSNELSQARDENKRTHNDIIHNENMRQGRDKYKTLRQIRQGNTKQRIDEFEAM

This test has as its target T1, β-dystroglycan (mouse (endogenous in C2C12)) (UniProt Q62165).
T1 sequence: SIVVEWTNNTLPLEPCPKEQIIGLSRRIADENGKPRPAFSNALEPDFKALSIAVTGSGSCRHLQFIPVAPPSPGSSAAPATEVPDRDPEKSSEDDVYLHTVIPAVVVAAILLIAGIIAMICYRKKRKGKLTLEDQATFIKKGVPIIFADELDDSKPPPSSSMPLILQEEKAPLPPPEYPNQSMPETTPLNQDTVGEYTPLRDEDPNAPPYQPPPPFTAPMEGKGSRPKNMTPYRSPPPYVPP
As to the kind of experiment: co-IP; C2C12 total extracts (1 mg) precipitated with anti-β-DG antibody or irrelevant IgG (IgG0) on protein G-agarose, overnight at 4°C; washes with 500 mM NaCl, 1% Triton X-100; Western blot for β-DG and ezrin.

Regarding ezrin (from UniProt P26040 1-586), the binding result is listed as “binds”.

These data come from paper PMC3944073.
